This passage reports binding results from patent US20120003180A1.

Sequences of proteins named here, by UniProt entry; tags and fusion partners are left off. A change or cut given only in a name is not applied to a line headed by its entry.
UniProt P11688: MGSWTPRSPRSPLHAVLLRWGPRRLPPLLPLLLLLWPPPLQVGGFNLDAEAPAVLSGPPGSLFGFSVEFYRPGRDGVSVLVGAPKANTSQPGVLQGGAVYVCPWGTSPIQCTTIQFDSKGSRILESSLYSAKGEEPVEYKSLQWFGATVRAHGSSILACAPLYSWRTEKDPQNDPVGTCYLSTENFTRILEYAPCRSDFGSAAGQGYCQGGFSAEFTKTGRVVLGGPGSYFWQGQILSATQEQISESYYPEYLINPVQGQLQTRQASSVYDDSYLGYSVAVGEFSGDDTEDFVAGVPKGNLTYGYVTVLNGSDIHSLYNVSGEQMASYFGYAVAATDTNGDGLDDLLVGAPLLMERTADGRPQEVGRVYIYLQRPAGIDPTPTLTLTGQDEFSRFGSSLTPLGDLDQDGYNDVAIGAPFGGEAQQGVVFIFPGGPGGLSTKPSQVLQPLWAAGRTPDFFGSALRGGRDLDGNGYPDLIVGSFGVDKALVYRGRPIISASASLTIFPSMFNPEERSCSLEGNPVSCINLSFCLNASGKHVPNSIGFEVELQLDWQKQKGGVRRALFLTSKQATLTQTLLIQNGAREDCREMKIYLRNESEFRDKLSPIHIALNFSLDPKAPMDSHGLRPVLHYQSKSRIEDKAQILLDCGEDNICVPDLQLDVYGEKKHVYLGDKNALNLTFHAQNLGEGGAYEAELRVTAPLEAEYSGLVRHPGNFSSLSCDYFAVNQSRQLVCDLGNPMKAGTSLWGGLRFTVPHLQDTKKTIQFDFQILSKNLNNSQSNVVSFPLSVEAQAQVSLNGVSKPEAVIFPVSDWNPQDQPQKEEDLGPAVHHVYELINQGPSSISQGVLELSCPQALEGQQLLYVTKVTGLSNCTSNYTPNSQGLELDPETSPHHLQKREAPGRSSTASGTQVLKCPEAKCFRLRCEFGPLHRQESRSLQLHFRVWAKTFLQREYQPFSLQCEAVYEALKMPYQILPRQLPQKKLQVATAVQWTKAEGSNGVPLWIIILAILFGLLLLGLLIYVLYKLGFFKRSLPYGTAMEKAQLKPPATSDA
UniProt P09055: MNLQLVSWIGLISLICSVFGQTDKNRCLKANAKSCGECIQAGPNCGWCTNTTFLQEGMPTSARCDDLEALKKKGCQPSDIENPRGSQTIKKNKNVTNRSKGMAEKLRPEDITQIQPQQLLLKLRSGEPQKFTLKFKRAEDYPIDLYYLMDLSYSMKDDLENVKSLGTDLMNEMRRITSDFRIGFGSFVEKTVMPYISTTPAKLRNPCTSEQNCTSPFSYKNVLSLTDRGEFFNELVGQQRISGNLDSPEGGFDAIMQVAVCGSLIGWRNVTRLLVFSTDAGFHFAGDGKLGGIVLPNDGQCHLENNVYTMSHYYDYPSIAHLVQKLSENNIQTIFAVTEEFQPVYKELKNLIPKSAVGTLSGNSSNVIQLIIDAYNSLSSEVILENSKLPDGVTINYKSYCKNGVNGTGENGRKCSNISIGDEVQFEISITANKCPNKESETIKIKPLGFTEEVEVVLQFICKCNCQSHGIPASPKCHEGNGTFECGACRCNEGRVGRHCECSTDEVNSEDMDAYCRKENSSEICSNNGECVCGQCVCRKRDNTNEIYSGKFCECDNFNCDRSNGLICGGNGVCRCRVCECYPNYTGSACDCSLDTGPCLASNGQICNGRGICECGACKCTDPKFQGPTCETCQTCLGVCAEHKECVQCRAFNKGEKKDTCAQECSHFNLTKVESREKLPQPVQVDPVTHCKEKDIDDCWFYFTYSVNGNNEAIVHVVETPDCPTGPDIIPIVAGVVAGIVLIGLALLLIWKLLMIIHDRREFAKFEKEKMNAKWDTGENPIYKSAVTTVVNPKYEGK

Experiment [1] concerns the target T1, α5β1 integrin on brain microvascular endothelial cells (mouse) (UniProt P11688+P09055). Put plainly: co-immunocytochemistry (anti-α5β1 and anti-HIS) on brain endothelial cells.
Experiment [2] has as its target T1, α5β1 integrin on brain microvascular endothelial cells (mouse). Put plainly: co-immunocytochemistry of brain endothelial cells after 30 minutes of DV treatment (FIG. 4F legend).

No constants are given. Whether binding was seen depends on the method and setting. Some entries that bind do so weakly or less than the wild type.

As to “Human perlecan Domain V (DV), recombinant, with C-terminal 6×His tag (from UniProt P98160 3687-4391) (ligand)”, the binding result in experiment [1] and in experiment [2] was “binds” throughout.
